Reference: the supplement of paper PMC6411743
± gives the standard deviation of the averaged measurements. Only a part is listed here, and it is no random draw.

The chains behind the UniProt entries cited, without tags or fusion partners. Where a name states a change or a piece, a line headed by the entry shows the natural chain unless it says otherwise.
UniProt Q86TI2: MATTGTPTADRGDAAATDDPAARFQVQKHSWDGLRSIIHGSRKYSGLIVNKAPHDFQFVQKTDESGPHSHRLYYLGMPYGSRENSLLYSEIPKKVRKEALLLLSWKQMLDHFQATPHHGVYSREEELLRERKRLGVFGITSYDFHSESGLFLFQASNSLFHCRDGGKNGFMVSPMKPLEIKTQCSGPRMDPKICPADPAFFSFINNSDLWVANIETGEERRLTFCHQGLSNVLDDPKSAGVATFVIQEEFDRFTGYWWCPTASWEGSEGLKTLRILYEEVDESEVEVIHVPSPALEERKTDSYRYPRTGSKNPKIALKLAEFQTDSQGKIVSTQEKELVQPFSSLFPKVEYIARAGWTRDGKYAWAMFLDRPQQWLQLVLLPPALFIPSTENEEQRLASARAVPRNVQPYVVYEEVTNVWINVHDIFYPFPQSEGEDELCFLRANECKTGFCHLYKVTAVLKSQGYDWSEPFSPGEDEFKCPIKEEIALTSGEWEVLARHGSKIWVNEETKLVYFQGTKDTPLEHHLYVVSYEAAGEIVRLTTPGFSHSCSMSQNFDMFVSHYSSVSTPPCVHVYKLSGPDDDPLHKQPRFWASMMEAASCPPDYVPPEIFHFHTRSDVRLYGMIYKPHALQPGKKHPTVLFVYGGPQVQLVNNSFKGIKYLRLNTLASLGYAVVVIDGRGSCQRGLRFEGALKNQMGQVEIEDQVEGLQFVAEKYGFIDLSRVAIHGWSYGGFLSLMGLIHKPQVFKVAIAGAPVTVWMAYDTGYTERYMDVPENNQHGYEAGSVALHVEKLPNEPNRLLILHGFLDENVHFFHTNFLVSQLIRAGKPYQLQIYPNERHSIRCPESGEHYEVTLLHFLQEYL
UniProt Q8N3D4: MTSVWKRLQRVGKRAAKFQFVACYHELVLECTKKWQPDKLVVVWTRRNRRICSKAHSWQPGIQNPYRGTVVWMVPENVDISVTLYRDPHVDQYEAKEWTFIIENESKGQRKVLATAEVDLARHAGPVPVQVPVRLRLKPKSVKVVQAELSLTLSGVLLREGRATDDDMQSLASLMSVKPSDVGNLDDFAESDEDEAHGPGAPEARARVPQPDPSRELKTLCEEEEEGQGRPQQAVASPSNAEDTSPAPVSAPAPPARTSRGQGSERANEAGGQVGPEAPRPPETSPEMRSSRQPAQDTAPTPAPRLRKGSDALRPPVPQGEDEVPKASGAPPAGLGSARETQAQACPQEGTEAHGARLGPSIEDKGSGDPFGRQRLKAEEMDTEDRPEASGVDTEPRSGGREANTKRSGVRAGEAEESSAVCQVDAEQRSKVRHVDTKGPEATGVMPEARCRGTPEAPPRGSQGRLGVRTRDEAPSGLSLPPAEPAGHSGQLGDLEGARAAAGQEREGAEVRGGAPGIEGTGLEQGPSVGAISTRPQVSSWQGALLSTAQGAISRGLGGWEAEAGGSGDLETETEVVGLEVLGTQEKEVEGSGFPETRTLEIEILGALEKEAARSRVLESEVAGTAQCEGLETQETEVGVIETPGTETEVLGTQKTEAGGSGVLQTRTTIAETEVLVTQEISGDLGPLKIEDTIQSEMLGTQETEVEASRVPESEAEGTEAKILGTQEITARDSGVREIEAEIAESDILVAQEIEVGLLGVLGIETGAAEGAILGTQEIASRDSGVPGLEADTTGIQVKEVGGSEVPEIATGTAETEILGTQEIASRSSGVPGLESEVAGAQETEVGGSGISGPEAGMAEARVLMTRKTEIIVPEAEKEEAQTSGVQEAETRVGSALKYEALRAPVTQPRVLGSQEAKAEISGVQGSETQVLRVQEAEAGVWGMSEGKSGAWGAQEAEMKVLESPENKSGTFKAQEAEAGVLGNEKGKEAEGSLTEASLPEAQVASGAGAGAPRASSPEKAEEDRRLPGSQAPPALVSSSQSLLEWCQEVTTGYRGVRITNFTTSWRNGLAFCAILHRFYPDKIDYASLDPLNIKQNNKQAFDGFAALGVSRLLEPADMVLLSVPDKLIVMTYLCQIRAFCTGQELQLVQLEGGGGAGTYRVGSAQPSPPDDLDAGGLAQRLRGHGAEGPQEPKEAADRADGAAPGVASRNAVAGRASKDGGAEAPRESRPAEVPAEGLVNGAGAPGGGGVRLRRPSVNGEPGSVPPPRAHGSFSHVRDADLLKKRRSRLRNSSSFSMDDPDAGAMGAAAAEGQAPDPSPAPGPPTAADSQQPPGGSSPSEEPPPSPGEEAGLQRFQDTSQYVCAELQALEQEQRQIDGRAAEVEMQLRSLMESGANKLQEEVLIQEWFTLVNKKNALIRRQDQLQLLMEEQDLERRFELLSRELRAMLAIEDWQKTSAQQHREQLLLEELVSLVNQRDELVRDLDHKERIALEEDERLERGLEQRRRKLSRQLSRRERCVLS
UniProt Q96JN0: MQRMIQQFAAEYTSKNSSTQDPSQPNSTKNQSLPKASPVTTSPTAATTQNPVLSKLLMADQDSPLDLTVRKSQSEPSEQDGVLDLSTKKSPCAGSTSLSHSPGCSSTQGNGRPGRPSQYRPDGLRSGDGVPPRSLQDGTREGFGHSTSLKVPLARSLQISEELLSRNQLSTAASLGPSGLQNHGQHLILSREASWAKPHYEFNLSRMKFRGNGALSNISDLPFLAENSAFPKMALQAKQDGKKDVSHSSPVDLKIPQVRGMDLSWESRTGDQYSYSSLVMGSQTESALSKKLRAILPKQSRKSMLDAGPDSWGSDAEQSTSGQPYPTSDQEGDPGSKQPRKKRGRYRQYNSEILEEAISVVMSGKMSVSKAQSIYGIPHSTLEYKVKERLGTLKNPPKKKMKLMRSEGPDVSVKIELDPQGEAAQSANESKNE
UniProt Q8IYA6: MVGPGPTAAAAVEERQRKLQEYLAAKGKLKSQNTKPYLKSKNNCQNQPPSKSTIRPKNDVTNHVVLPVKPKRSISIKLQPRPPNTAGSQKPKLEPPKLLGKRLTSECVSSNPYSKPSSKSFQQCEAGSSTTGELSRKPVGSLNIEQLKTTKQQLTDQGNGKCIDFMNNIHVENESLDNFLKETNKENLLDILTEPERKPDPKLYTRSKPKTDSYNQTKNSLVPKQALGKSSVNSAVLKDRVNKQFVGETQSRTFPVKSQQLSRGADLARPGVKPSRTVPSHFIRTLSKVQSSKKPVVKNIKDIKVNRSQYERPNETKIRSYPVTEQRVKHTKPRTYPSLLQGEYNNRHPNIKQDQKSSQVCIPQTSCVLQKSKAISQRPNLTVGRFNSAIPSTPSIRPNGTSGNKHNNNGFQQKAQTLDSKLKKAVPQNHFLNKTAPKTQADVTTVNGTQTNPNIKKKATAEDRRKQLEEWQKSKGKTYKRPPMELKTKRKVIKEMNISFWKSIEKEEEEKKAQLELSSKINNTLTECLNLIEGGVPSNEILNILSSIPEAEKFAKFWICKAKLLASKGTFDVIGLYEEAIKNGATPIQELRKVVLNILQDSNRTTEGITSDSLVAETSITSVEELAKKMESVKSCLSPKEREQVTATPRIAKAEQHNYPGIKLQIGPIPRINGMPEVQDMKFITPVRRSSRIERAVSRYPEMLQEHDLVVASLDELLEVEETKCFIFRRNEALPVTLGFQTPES
UniProt Q8N9M1: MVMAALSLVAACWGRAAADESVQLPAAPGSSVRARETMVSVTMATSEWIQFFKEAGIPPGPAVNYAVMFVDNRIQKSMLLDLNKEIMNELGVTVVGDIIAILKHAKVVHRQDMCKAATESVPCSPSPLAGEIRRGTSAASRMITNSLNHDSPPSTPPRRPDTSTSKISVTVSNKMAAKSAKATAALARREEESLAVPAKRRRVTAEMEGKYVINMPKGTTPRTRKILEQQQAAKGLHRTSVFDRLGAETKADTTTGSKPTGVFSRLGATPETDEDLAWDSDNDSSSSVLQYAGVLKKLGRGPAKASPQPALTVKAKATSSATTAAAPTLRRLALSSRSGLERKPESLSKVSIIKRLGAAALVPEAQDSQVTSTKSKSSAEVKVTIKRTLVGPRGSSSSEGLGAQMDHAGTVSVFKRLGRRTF
UniProt Q8IY18: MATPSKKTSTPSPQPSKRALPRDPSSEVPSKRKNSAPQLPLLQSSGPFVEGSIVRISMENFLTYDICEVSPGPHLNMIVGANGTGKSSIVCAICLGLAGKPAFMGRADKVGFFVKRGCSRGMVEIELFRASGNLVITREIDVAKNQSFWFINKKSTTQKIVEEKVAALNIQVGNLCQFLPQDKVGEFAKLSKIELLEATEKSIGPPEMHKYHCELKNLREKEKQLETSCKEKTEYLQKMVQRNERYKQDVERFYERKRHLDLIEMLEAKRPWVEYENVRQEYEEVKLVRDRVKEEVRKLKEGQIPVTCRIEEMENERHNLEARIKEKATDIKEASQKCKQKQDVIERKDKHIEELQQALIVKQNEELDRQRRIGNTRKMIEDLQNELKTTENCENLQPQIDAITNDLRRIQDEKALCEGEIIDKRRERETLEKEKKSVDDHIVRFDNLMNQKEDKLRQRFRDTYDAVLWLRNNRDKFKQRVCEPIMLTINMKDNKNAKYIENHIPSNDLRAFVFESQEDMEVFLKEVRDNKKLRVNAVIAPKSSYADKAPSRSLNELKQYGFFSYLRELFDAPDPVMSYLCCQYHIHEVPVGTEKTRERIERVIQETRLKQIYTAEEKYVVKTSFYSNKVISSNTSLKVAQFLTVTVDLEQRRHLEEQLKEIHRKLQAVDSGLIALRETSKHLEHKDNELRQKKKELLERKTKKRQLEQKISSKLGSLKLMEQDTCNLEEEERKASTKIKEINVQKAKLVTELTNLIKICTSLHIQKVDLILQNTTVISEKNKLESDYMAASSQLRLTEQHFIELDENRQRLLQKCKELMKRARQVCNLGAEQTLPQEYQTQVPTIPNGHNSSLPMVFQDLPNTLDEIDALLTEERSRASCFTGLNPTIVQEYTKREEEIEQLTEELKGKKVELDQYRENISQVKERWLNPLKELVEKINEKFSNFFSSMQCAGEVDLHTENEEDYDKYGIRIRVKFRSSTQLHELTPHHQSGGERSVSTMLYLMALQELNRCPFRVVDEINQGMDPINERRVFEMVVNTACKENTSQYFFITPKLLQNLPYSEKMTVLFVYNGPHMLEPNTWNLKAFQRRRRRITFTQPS
UniProt Q8N999, whole entry: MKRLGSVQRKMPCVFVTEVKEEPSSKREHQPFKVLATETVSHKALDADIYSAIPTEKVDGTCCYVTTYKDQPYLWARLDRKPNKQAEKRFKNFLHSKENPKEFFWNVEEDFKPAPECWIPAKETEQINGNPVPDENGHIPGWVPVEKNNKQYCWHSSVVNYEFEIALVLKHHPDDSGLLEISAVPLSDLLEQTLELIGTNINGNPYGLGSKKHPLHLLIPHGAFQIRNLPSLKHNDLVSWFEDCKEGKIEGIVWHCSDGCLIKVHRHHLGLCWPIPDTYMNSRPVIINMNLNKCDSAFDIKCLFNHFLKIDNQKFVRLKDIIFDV
UniProt Q8IX12: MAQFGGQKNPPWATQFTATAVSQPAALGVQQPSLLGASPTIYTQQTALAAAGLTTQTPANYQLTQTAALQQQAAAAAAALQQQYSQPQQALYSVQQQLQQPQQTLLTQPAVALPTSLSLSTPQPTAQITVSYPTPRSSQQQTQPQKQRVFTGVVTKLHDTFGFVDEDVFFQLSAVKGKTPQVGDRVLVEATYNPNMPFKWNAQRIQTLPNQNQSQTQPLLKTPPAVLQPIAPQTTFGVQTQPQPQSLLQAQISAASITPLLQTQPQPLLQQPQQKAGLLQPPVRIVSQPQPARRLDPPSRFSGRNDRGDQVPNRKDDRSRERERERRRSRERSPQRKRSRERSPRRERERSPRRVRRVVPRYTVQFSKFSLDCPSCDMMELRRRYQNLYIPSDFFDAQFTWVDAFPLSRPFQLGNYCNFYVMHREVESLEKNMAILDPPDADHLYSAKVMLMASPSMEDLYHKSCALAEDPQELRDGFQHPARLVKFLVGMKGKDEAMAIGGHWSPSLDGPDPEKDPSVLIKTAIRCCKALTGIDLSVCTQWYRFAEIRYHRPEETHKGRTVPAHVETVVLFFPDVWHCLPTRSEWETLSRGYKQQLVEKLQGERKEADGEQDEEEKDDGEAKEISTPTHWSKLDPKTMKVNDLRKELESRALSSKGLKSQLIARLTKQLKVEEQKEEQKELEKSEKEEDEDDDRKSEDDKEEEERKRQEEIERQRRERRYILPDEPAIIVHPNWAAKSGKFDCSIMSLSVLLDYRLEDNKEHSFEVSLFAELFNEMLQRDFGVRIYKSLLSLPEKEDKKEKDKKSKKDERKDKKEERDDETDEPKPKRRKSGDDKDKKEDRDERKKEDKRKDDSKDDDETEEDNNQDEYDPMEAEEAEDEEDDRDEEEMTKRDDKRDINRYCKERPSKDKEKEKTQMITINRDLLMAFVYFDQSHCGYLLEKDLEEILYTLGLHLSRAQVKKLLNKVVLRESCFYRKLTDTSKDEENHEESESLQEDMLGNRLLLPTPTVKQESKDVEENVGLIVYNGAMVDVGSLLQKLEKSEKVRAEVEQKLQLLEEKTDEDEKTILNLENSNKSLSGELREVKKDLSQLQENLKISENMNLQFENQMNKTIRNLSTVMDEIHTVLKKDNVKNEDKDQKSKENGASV

Compound: Nc1ncnc2c1ncn2[C@@H]1O[C@H](COP(=O)(O)OP(=O)(O)NP(=O)(O)O)[C@@H](O)[C@H]1O [adenylyl imidodiphosphate]
Experiment: NP40-soluble protein abundance relative to vehicle (solubility fold change) (ratio); higher = more soluble protein in presence of AMP-PNP
In short: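 Each value is a fold change relative to the detergent-processed vehicle, calculated per replicate from vsn-normalised intensities. Jurkat crude lysate received eight concentrations (0.1 to 10 mM) for 10 min at room temperature and 3 min at 37 °C, then was solubilised in 0.8% NP40 with benzonase (60 min, 4 °C). The ultracentrifuged supernatant was TMT-labelled and run by LC-MS/MS in three independent experiments.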

Work on UniProt Q86TI2 and related entries yielded an NP40-soluble protein abundance (concentration: 1mM) of 0.978 ± 0.016, an NP40-soluble protein abundance (concentration: 2mM) of 0.875 ± 0.1 and an NP40-soluble protein abundance (concentration: 4mM) of 0.945 ± 0.019. The NP40-soluble protein abundance (concentration: 6mM) was 0.912 ± 0.039, the NP40-soluble protein abundance (concentration: 8mM) was 0.943 ± 0.046 and the NP40-soluble protein abundance (concentration: 10mM) was 0.9 ± 0.016.
UniProt Q8IXJ6 and related entries was tested, and the NP40-soluble protein abundance (concentration: 1mM) was 1 ± 0.065, the NP40-soluble protein abundance (concentration: 2mM) was 1.03 ± 0.037 and the NP40-soluble protein abundance (concentration: 4mM) was 1.01 ± 0.04. It also gave an NP40-soluble protein abundance (concentration: 6mM) of 0.98 ± 0.043, an NP40-soluble protein abundance (concentration: 8mM) of 0.97 ± 0.04 and an NP40-soluble protein abundance (concentration: 10mM) of 0.987 ± 0.057.
Work on NKAP (UniProt Q8N5F7) yielded an NP40-soluble protein abundance (concentration: 1mM) of 1.01 ± 0.013, an NP40-soluble protein abundance (concentration: 2mM) of 1.08 ± 0.13 and an NP40-soluble protein abundance (concentration: 4mM) of 1.04 ± 0.058. For the same target, the NP40-soluble protein abundance (concentration: 6mM) was 1.08 ± 0.092, the NP40-soluble protein abundance (concentration: 8mM) was 1.1 ± 0.074 and the NP40-soluble protein abundance (concentration: 10mM) was 1.12 ± 0.12.
With EHBP1L1 (UniProt Q8N3D4) the NP40-soluble protein abundance (concentration: 1mM) was 1.06 ± 0.028, the NP40-soluble protein abundance (concentration: 2mM) was 1.11 ± 0.099 and the NP40-soluble protein abundance (concentration: 4mM) was 1.07 ± 0.11. It also gave an NP40-soluble protein abundance (concentration: 6mM) of 1.02 ± 0.034, an NP40-soluble protein abundance (concentration: 8mM) of 1.01 ± 0.059 and an NP40-soluble protein abundance (concentration: 10mM) of 1.01 ± 0.08.
DDX60 (UniProt Q8IY21) gave an NP40-soluble protein abundance (concentration: 1mM) of 1.06 ± 0.05, an NP40-soluble protein abundance (concentration: 2mM) of 1.11 ± 0.058 and an NP40-soluble protein abundance (concentration: 4mM) of 1.17 ± 0.029. The NP40-soluble protein abundance (concentration: 6mM) was 1.19 ± 0.062, the NP40-soluble protein abundance (concentration: 8mM) was 1.26 ± 0.089 and the NP40-soluble protein abundance (concentration: 10mM) was 1.3 ± 0.066.
With UniProt Q86UT6 and related entries the NP40-soluble protein abundance (concentration: 1mM) was 1.01 ± 0.016, the NP40-soluble protein abundance (concentration: 2mM) was 1.01 ± 0.014 and the NP40-soluble protein abundance (concentration: 4mM) was 1.01 ± 0.011. The NP40-soluble protein abundance (concentration: 6mM) was 1.008 ± 0.0033, the NP40-soluble protein abundance (concentration: 8mM) was 1.01 ± 0.024 and the NP40-soluble protein abundance (concentration: 10mM) was 1.01 ± 0.026.
For Q8N655 (UniProt Q96JN0), the NP40-soluble protein abundance (concentration: 1mM) was 1.07 ± 0.013, the NP40-soluble protein abundance (concentration: 2mM) was 1.08 ± 0.024 and the NP40-soluble protein abundance (concentration: 4mM) was 1.12 ± 0.04. The NP40-soluble protein abundance (concentration: 6mM) was 1.13 ± 0.026, the NP40-soluble protein abundance (concentration: 8mM) was 1.112 ± 0.0082 and the NP40-soluble protein abundance (concentration: 10mM) was 1.1104 ± 0.0011.
Target CKAP2L (UniProt Q8IYA6) has an NP40-soluble protein abundance (concentration: 1mM) of 1 ± 0.011, an NP40-soluble protein abundance (concentration: 2mM) of 1.01 ± 0.023 and an NP40-soluble protein abundance (concentration: 4mM) of 1.03 ± 0.02. For the same target, the NP40-soluble protein abundance (concentration: 6mM) was 1.02 ± 0.011, the NP40-soluble protein abundance (concentration: 8mM) was 1.06 ± 0.024 and the NP40-soluble protein abundance (concentration: 10mM) was 1.11 ± 0.063.
In the case of PM20D2 (UniProt Q8IYS1), the NP40-soluble protein abundance (concentration: 1mM) is reported as 0.98 ± 0.04, the NP40-soluble protein abundance (concentration: 2mM) is reported as 0.91 ± 0.1 and the NP40-soluble protein abundance (concentration: 4mM) is reported as 0.977 ± 0.025. The NP40-soluble protein abundance (concentration: 6mM) was 0.964 ± 0.031, the NP40-soluble protein abundance (concentration: 8mM) was 0.993 ± 0.034 and the NP40-soluble protein abundance (concentration: 10mM) was 0.94 ± 0.025.
UniProt Q8NBF6 and related entries showed an NP40-soluble protein abundance (concentration: 1mM) of 0.964 ± 0.046, an NP40-soluble protein abundance (concentration: 2mM) of 0.998 ± 0.063 and an NP40-soluble protein abundance (concentration: 4mM) of 0.99 ± 0.041. The NP40-soluble protein abundance (concentration: 6mM) was 0.964 ± 0.045, the NP40-soluble protein abundance (concentration: 8mM) was 0.963 ± 0.019 and the NP40-soluble protein abundance (concentration: 10mM) was 0.955 ± 0.023.
UniProt Q8N9M1 and related entries showed an NP40-soluble protein abundance (concentration: 1mM) of 0.938 ± 0.057, an NP40-soluble protein abundance (concentration: 2mM) of 0.968 ± 0.061 and an NP40-soluble protein abundance (concentration: 4mM) of 0.929 ± 0.099. It also gave an NP40-soluble protein abundance (concentration: 6mM) of 0.974 ± 0.099, an NP40-soluble protein abundance (concentration: 8mM) of 0.97 ± 0.066 and an NP40-soluble protein abundance (concentration: 10mM) of 0.998 ± 0.12.
UBE2Q1 (UniProt Q7Z7E8) showed an NP40-soluble protein abundance (concentration: 1mM) of 1.01 ± 0.013, an NP40-soluble protein abundance (concentration: 2mM) of 1.06 ± 0.037 and an NP40-soluble protein abundance (concentration: 4mM) of 1.02 ± 0.053. For the same target, the NP40-soluble protein abundance (concentration: 6mM) was 0.995 ± 0.017, the NP40-soluble protein abundance (concentration: 8mM) was 0.982 ± 0.026 and the NP40-soluble protein abundance (concentration: 10mM) was 1.01 ± 0.033.
SMC5 (UniProt Q8IY18) gave an NP40-soluble protein abundance (concentration: 1mM) of 0.985 ± 0.018, an NP40-soluble protein abundance (concentration: 2mM) of 0.98 ± 0.015 and an NP40-soluble protein abundance (concentration: 4mM) of 0.975 ± 0.015. The NP40-soluble protein abundance (concentration: 6mM) was 0.9807 ± 0.0094, the NP40-soluble protein abundance (concentration: 8mM) was 0.969 ± 0.011 and the NP40-soluble protein abundance (concentration: 10mM) was 0.994 ± 0.023.
Target C12orf29 (UniProt Q8N999) has an NP40-soluble protein abundance (concentration: 1mM) of 0.995 ± 0.05, an NP40-soluble protein abundance (concentration: 2mM) of 0.965 ± 0.04 and an NP40-soluble protein abundance (concentration: 4mM) of 0.967 ± 0.028. It also gave an NP40-soluble protein abundance (concentration: 6mM) of 0.983 ± 0.028, an NP40-soluble protein abundance (concentration: 8mM) of 0.969 ± 0.024 and an NP40-soluble protein abundance (concentration: 10mM) of 0.97 ± 0.028.
With UniProt Q8IX12 and related entries the NP40-soluble protein abundance (concentration: 1mM) was 0.983 ± 0.015, the NP40-soluble protein abundance (concentration: 2mM) was 0.9936 ± 0.0086 and the NP40-soluble protein abundance (concentration: 4mM) was 1.01 ± 0.046. The NP40-soluble protein abundance (concentration: 6mM) was 1 ± 0.05, the NP40-soluble protein abundance (concentration: 8mM) was 0.985 ± 0.045 and the NP40-soluble protein abundance (concentration: 10mM) was 1.02 ± 0.058.
